For the assay, the target named is U2AF2-TurboID-HA (human) (UniProt P26368). Description: proximity labelling; U2AF2-TurboID-HA induced with doxycycline for 4 h in mesoderm cells differentiated from hiPSC (CHIR99021, 24 h); biotinylated proteins purified on streptavidin magnetic beads, LC-MS with label-free quantification; hits: Log2ΔLFQ >= 2 and p <= 0.05, mesoderm against pluripotent U2AF2-TurboID samples or against GFP-TurboID.

Sequences of proteins named here, by UniProt entry; tags and fusion partners are left off.
UniProt P26368: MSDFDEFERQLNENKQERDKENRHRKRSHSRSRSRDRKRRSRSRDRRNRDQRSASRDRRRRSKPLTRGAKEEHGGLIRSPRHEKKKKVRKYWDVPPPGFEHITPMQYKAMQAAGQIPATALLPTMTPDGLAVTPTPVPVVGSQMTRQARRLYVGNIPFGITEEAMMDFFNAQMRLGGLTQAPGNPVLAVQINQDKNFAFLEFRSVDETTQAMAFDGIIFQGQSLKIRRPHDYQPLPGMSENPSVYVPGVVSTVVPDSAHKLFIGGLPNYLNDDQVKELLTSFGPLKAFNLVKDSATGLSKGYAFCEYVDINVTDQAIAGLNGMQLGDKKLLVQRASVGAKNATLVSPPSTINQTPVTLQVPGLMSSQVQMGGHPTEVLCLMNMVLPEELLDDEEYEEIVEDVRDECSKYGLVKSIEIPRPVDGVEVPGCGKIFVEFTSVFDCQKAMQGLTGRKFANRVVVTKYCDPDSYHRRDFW

These are yes or no findings as the source states them, for the method shown. Binding seen in cells or lysates may run through a third protein. These calls come from enrichment with a bait or labelling near it, and not all partners need be listed.

B1: DLAT (protein, UniProt P10515 87-647)
chain: SLPPHQKVPLPSLSPTMQAGTIARWEKKEGDKINEGDLIAEVETDKATVGFESLEECYMAKILVAEGTRDVPIGAIICITVGKPEDIEAFKNYTLDSSAAPTPQAAPAPTPAATASPPTPSAQAPGSSYPPHMQVLLPALSPTMTMGTVQRWEKKVGEKLSEGDLLAEIETDKATIGFEVQEEGYLAKILVPEGTRDVPLGTPLCIIVEKEADISAFADYRPTEVTDLKPQVPPPTPPPVAAVPPTPQPLAPTPSAPCPATPAGPKGRVFVSPLAKKLAVEKGIDLTQVKGTGPDGRITKKDIDSFVPSKVAPAPAAVVPPTGPGMAPVPTGVFTDIPISNIRRVIAQRLMQSKQTIPHYYLSIDVNMGEVLLVRKELNKILEGRSKISVNDFIIKASALACLKVPEANSSWMDTVIRQNHVVDVSVAVSTPAGLITPIVFNAHIKGVETIANDVVSLATKAREGKLQPHEFQGGTFTISNLGMFGIKNFSAIINPPQACILAIGASEDKLVPADNEKGFDVASMMSVTLSCDHRVVDGAVGAQWLAEFRKYLEKPITMLL
Turning to B1, the binding result is “binds”.

B2: ACO2 (protein, UniProt Q99798 28-780)
chain: QRAKVAMSHFEPNEYIHYDLLEKNINIVRKRLNRPLTLSEKIVYGHLDDPASQEIERGKSYLRLRPDRVAMQDATAQMAMLQFISSGLSKVAVPSTIHCDHLIEAQVGGEKDLRRAKDINQEVYNFLATAGAKYGVGFWKPGSGIIHQIILENYAYPGVLLIGTDSHTPNGGGLGGICIGVGGADAVDVMAGIPWELKCPKVIGVKLTGSLSGWSSPKDVILKVAGILTVKGGTGAIVEYHGPGVDSISCTGMATICNMGAEIGATTSVFPYNHRMKKYLSKTGREDIANLADEFKDHLVPDPGCHYDQLIEINLSELKPHINGPFTPDLAHPVAEVGKVAEKEGWPLDIRVGLIGSCTNSSYEDMGRSAAVAKQALAHGLKCKSQFTITPGSEQIRATIERDGYAQILRDLGGIVLANACGPCIGQWDRKDIKKGEKNTIVTSYNRNFTGRNDANPETHAFVTSPEIVTALAIAGTLKFNPETDYLTGTDGKKFRLEAPDADELPKGEFDPGQDTYQHPPKDSSGQHVDVSPTSQRLQLLEPFDKWDGKDLEDLQILIKVKGKCTTDHISAAGPWLKFRGHLDNISNNLLIGAINIENGKANSVRNAVTQEFGPVPDTARYYKKHGIRWVVIGDENYGEGSSREHAALEPRHLGGRAIITKSFARIHETNLKKQGLLPLTFADPADYNKIHPVDKLTIQGLKDFTPGKPLKCIIKHPNGTQETILLNHTFNETQIEWFRAGSALNRMKELQQ
As for B2, the binding entry is “binds”.

B3: SYMPK (protein, UniProt Q92797 1-1274)
chain: MASGSGDSVTRRSVASQFFTQEEGPGIDGMTTSERVVDLLNQAALITNDSKITVLKQVQELIINKDPTLLDNFLDEIIAFQADKSIEVRKFVIGFIEEACKRDIELLLKLIANLNMLLRDENVNVVKKAILTMTQLYKVALQWMVKSRVISELQEACWDMVSAMAGDIILLLDSDNDGIRTHAIKFVEGLIVTLSPRMADSEIPRRQEHDISLDRIPRDHPYIQYNVLWEEGKAALEQLLKFMVHPAISSINLTTALGSLANIARQRPMFMSEVIQAYETLHANLPPTLAKSQVSSVRKNLKLHLLSVLKHPASLEFQAQITTLLVDLGTPQAEIARNMPSSKDTRKRPRDDSDSTLKKMKLEPNLGEDDEDKDLEPGPSGTSKASAQISGQSDTDITAEFLQPLLTPDNVANLVLISMVYLPEAMPASFQAIYTPVESAGTEAQIKHLARLMATQMTAAGLGPGVEQTKQCKEEPKEEKVVKTESVLIKRRLSAQGQAISVVGSLSSMSPLEEEAPQAKRRPEPIIPVTQPRLAGAGGRKKIFRLSDVLKPLTDAQVEAMKLGAVKRILRAEKAVACSGAAQVRIKILASLVTQFNSGLKAEVLSFILEDVRARLDLAFAWLYQEYNAYLAAGASGSLDKYEDCLIRLLSGLQEKPDQKDGIFTKVVLEAPLITESALEVVRKYCEDESRTYLGMSTLRDLIFKRPSRQFQYLHVLLDLSSHEKDKVRSQALLFIKRMYEKEQLREYVEKFALNYLQLLVHPNPPSVLFGADKDTEVAAPWTEETVKQCLYLYLALLPQNHKLIHELAAVYTEAIADIKRTVLRVIEQPIRGMGMNSPELLLLVENCPKGAETLVTRCLHSLTDKVPPSPELVKRVRDLYHKRLPDVRFLIPVLNGLEKKEVIQALPKLIKLNPIVVKEVFNRLLGTQHGEGNSALSPLNPGELLIALHNIDSVKCDMKSIIKATNLCFAERNVYTSEVLAVVMQQLMEQSPLPMLLMRTVIQSLTMYPRLGGFVMNILSRLIMKQVWKYPKVWEGFIKCCQRTKPQSFQVILQLPPQQLGAVFDKCPELREPLLAHVRSFTPHQQAHIPNSIMTILEASGKQEPEAKEAPAGPLEEDDLEPLTLAPAPAPRPPQDLIGLRLAQEKALKRQLEEEQKLKPGGVGAPSSSSPSPSPSARPGPPPSEEAMDFREEGPECETPGIFISMDDDSGLTEAALLDSSLEGPLPKETAAGGLTLKEERSPQTLAPVGEDAMKTPSPAAEDAREPEAKGNS
On to B3, for which the binding result is recorded as “binds”.

B4: MARCKS (protein, UniProt P29966 1-332)
chain: MGAQFSKTAAKGEAAAERPGEAAVASSPSKANGQENGHVKVNGDASPAAAESGAKEELQANGSAPAADKEEPAAAGSGAASPSAAEKGEPAAAAAPEAGASPVEKEAPAEGEAAEPGSPTAAEGEAASAASSTSSPKAEDGATPSPSNETPKKKKKRFSFKKSFKLSGFSFKKNKKEAGEGGEAEAPAAEGGKDEAAGGAAAAAAEAGAASGEQAAAPGEEAAAGEEGAAGGDPQEAKPQEAAVAPEKPPASDETKAAEEPSKVEEKKAEEAGASAAACEAPSAAGPGAPPEQEAAPAEEPAAAAASSACAAPSQEAQPECSPEAPPAEAAE
Take B4: the binding result is “binds”.

B5: ZNF281 (protein, UniProt Q9Y2X9 1-895)
chain: MKIGSGFLSGGGGTGSSGGSGSGGGGSGGGGGGGSSGRRAEMEPTFPQGMVMFNHRLPPVTSFTRPAGSAAPPPQCVLSSSTSAAPAAEPPPPPAPDMTFKKEPAASAAAFPSQRTSWGFLQSLVSIKQEKPADPEEQQSHHHHHHHHYGGLFAGAEERSPGLGGGEGGSHGVIQDLSILHQHVQQQPAQHHRDVLLSSSSRTDDHHGTEEPKQDTNVKKAKRPKPESQGIKAKRKPSASSKPSLVGDGEGAILSPSQKPHICDHCSAAFRSSYHLRRHVLIHTGERPFQCSQCSMGFIQKYLLQRHEKIHSREKPFGCDQCSMKFIQKYHMERHKRTHSGEKPYKCDTCQQYFSRTDRLLKHRRTCGEVIVKGATSAEPGSSNHTNMGNLAVLSQGNTSSSRRKTKSKSIAIENKEQKTGKTNESQISNNINMQSYSVEMPTVSSSGGIIGTGIDELQKRVPKLIFKKGSRKNTDKNYLNFVSPLPDIVGQKSLSGKPSGSLGIVSNNSVETIGLLQSTSGKQGQISSNYDDAMQFSKKRRYLPTASSNSAFSINVGHMVSQQSVIQSAGVSVLDNEAPLSLIDSSALNAEIKSCHDKSGIPDEVLQSILDQYSNKSESQKEDPFNIAEPRVDLHTSGEHSELVQEENLSPGTQTPSNDKASMLQEYSKYLQQAFEKSTNASFTLGHGFQFVSLSSPLHNHTLFPEKQIYTTSPLECGFGQSVTSVLPSSLPKPPFGMLFGSQPGLYLSALDATHQQLTPSQELDDLIDSQKNLETSSAFQSSSQKLTSQKEQKNLESSTGFQIPSQELASQIDPQKDIEPRTTYQIENFAQAFGSQFKSGSRVPMTFITNSNGEVDHRVRTSVSDFSGYTNMMSDVSEPCSTRVKTPTSQSYR
On to B5, for which the binding result is “binds”.

B6: XAB2 (protein, UniProt Q9HCS7 1-855)
chain: MVVMARLSRPERPDLVFEEEDLPYEEEIMRNQFSVKCWLRYIEFKQGAPKPRLNQLYERALKLLPCSYKLWYRYLKARRAQVKHRCVTDPAYEDVNNCHERAFVFMHKMPRLWLDYCQFLMDQGRVTHTRRTFDRALRALPITQHSRIWPLYLRFLRSHPLPETAVRGYRRFLKLSPESAEEYIEYLKSSDRLDEAAQRLATVVNDERFVSKAGKSNYQLWHELCDLISQNPDKVQSLNVDAIIRGGLTRFTDQLGKLWCSLADYYIRSGHFEKARDVYEEAIRTVMTVRDFTQVFDSYAQFEESMIAAKMETASELGREEEDDVDLELRLARFEQLISRRPLLLNSVLLRQNPHHVHEWHKRVALHQGRPREIINTYTEAVQTVDPFKATGKPHTLWVAFAKFYEDNGQLDDARVILEKATKVNFKQVDDLASVWCQCGELELRHENYDEALRLLRKATALPARRAEYFDGSEPVQNRVYKSLKVWSMLADLEESLGTFQSTKAVYDRILDLRIATPQIVINYAMFLEEHKYFEESFKAYERGISLFKWPNVSDIWSTYLTKFIARYGGRKLERARDLFEQALDGCPPKYAKTLYLLYAQLEEEWGLARHAMAVYERATRAVEPAQQYDMFNIYIKRAAEIYGVTHTRGIYQKAIEVLSDEHAREMCLRFADMECKLGEIDRARAIYSFCSQICDPRTTGAFWQTWKDFEVRHGNEDTIKEMLRIRRSVQATYNTQVNFMASQMLKVSGSATGTVSDLAPGQSGMDDMKLLEQRAEQLAAEAERDQPLRAQSKILFVRSDASREELAELAQQVNPEEIQLGEDEDEDEMDLEPNEVRLEQQSVPAAVFGSLKED
With B6, the binding entry is “binds”.

B7: NOL7 (protein, UniProt Q9UMY1 1-257)
chain: MVQLRPRASRAPASAEAMVDEGQLASEEEEAEHGLLLGQPSSGAAAEPLEEDEEGDDEFDDEAPEELTFASAQAEAREEERRVRETVRRDKTLLKEKRKRREELFIEQKKRKLLPDTILEKLTTASQTNIKKSPGKVKEVNLQKKNEDCEKGNDSKKVKVQKVQSVSQNKSYLAVRLKDQDLRDSRQQAAQAFIHNSLYGPGTNRTTVNKFLSLANKRLPVKRAAVQFLNNAWGIQKKQNAKRFKRRWMVRKMKTKK
For the molecule B7, the binding entry was “binds”.

B8: SUGP1 (protein, UniProt Q8IWZ8 1-645)
chain: MSLKMDNRDVAGKANRWFGVAPPKSGKMNMNILHQEELIAQKKREIEAKMEQKAKQNQVASPQPPHPGEITNAHNSSCISNKFANDGSFLQQFLKLQKAQTSTDAPTSAPSAPPSTPTPSAGKRSLLISRRTGLGLASLPGPVKSYSHAKQLPVAHRPSVFQSPDEDEEEDYEQWLEIKVSPPEGAETRKVIEKLARFVAEGGPELEKVAMEDYKDNPAFAFLHDKNSREFLYYRKKVAEIRKEAQKSQAASQKVSPPEDEEVKNLAEKLARFIADGGPEVETIALQNNRENQAFSFLYEPNSQGYKYYRQKLEEFRKAKASSTGSFTAPDPGLKRKSPPEALSGSLPPATTCPASSTPAPTIIPAPAAPGKPASAATVKRKRKSRWGPEEDKVELPPAELVQRDVDASPSPLSVQDLKGLGYEKGKPVGLVGVTELSDAQKKQLKEQQEMQQMYDMIMQHKRAMQDMQLLWEKAVQQHQHGYDSDEEVDSELGTWEHQLRRMEMDKTREWAEQLTKMGRGKHFIGDFLPPDELEKFMETFKALKEGREPDYSEYKEFKLTVENIGYQMLMKMGWKEGEGLGSEGQGIKNPVNKGTTTVDGAGFGIDRPAELSKEDDEYEAFRKRMMLAYRFRPNPLNNPRRPYY
Regarding B8, the binding result is recorded as “binds”.

These data come from paper PMC12124498.
